Results are given in words; binding and its absence hold for the method and conditions named. Some results given as binding are weak or reduced against the parent protein; the word gives no strength. Where a sequence is shown, tags or fusion partners need not be part of it.

The assay deals with T1, human VISTA on cells (human monocytes, AML3 cells, 293T/HEK293 cells expressing full-length human VISTA) (human) (UniProt Q9H7M9).
T1 sequence: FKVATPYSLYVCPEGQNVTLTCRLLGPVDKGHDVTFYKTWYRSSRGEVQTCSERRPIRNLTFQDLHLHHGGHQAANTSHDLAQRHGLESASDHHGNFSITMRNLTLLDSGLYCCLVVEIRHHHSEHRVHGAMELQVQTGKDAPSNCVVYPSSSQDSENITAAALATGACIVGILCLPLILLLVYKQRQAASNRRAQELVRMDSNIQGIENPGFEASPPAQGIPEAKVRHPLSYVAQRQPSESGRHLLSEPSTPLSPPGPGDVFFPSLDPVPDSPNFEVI
Kind of assay: cell-based assay, acidic pH.

B1: PSGL1-Fc / recombinant human PSGL-1 (construct limits not stated) (Fc fusion, UniProt Q14242 42-295, looked up, not shown: a dimerising Fc or GST)
chain: QATEYEYLDYDFLPETEPPEMLRNSTDTTPLTGPGTPESTTVEPAARRSTGLDAGGAVTELTTELANMGNLSTDSAAMEIQTTQPAATEAQTTQPVPTEAQTTPLAATEAQTTRLTATEAQTTPLAATEAQTTPPAATEAQTTQPTGLEAQTTAPAAMEAQTTAPAAMEAQTTPPAAMEAQTTQTTAMEAQTTAPEATEAQTTQPTATEAQTTPLAAMEALSTEPSATEALSMEPTTKRGLFIPFSVSSVTHKG
As for B1, the binding entry was “binds”.
